Test results: publication PMC9496622
No constants are given. Whether binding was seen depends on the method and setting. In cells and extracts the contact can be indirect. Some results given as binding are weak or reduced against the parent protein; the word gives no strength.

Protein sequences, listed by entry. Tags and fused reporters are not part of them.
UniProt P55884: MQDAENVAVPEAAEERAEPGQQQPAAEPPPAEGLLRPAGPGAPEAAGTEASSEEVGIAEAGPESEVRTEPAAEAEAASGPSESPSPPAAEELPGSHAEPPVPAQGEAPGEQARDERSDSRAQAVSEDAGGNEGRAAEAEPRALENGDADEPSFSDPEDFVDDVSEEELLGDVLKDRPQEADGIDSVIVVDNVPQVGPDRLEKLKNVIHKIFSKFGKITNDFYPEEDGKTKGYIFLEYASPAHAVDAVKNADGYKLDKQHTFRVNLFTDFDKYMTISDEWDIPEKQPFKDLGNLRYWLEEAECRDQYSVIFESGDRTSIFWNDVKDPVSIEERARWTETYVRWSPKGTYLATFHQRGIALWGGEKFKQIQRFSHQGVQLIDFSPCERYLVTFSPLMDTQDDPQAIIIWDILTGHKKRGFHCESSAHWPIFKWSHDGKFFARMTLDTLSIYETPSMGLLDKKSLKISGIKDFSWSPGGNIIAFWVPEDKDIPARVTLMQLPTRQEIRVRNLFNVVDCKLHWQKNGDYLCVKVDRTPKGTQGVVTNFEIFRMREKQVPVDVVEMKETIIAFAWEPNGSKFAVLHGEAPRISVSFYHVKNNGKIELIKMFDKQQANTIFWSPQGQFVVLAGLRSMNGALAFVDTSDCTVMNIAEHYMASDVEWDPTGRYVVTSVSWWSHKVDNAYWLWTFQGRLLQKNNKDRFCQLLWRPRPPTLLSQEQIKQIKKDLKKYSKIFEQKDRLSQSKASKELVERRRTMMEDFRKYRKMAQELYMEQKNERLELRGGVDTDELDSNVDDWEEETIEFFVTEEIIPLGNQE
UniProt O15371: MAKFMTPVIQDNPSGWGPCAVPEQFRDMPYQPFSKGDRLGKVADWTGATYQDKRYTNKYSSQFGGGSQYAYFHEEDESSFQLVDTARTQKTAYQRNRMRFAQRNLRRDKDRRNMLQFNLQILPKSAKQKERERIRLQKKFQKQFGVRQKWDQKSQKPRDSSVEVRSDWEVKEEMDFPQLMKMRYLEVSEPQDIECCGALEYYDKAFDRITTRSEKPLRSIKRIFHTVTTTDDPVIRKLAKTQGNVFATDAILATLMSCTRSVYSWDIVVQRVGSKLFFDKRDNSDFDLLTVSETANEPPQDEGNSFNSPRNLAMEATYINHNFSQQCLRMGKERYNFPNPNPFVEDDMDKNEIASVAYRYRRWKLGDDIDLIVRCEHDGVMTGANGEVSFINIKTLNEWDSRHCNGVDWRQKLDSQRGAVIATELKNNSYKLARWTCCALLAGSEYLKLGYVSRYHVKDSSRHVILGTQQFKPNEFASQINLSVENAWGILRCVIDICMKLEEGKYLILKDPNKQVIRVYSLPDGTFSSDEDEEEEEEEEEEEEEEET
UniProt Q9UBQ5: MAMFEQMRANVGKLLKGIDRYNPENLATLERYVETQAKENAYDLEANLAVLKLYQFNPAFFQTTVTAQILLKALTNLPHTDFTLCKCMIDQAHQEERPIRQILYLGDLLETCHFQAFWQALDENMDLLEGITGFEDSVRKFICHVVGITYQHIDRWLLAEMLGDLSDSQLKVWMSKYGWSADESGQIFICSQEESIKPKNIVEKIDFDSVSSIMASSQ

Target: eukaryotic translation initiation factor 3 (eIF3) subunit b (human (endogenous in HEK293FT)) (UniProt P55884)
Assay: co-IP; endogenous eIF3 complex immunopurified from extracts of HEK293FT cells cross-linked with 0.2% formaldehyde; anti-eIF3b antibody (Bethyl A301-761A) on protein A uMACS magnetic beads; Lysis Buffer 50 mM Tris-HCl pH 8, 150 mM NaCl, 1% Triton X-100; four washes, elution in Laemmli buffer, Western blotting; control without antibody

| binding | Substance |
| --- | --- |
| binds | eukaryotic translation initiation factor 3 (eIF3) subunit d (from UniProt O15371 1-548) |
| binds | eukaryotic translation initiation factor 3 (eIF3) subunit k (from UniProt Q9UBQ5 1-218) |
